This is one part of the list.
Tests used:
Assay in all cases: log2 fold change, soluble protein after heating vs DMSO (PISA); higher = thermal stabilisation; K562 cells, 10 uM, 30 min; active = over 0.2 and 3.5 SD of the protein, either way, in both replicates (recomputed)
bafetinib = compound: Cc1ccc(NC(=O)c2ccc(CN3CC[C@H](N(C)C)C3)c(C(F)(F)F)c2)cc1Nc1nccc(-c2cncnc2)n1 [bafetinib]
Summary of the method: (§1)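 K562 cells at 2×10^6 cells/mL were treated with 10 μM compound for 30 min. Aliquots were heated for 3 min across 48°C-58°C, pooled, and extracted in PBS with 0.5% NP-40 at 4°C; soluble protein was the supernatant after 21,000xg for 90 min. Soluble protein was quantified by TMTpro 16plex LC-MS/MS with channel sums equalised, and reported as log2 fold change in thermal stability against DMSO controls, with values from duplicates.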

Protein sequences, listed by entry. Tags and fused reporters are not part of them. Lines headed by an entry give the natural chain unless they say otherwise; changes in a name come on top.
UniProt Q7Z7A3: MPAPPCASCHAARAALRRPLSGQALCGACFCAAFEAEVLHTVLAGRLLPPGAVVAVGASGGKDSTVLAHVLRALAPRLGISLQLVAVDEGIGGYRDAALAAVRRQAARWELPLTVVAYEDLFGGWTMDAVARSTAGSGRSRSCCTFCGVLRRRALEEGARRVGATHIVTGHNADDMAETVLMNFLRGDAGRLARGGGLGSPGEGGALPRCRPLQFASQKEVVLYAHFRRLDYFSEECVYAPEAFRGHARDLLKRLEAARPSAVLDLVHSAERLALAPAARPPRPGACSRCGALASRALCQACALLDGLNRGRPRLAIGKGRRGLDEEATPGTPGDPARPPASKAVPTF
UniProt Q6PI48: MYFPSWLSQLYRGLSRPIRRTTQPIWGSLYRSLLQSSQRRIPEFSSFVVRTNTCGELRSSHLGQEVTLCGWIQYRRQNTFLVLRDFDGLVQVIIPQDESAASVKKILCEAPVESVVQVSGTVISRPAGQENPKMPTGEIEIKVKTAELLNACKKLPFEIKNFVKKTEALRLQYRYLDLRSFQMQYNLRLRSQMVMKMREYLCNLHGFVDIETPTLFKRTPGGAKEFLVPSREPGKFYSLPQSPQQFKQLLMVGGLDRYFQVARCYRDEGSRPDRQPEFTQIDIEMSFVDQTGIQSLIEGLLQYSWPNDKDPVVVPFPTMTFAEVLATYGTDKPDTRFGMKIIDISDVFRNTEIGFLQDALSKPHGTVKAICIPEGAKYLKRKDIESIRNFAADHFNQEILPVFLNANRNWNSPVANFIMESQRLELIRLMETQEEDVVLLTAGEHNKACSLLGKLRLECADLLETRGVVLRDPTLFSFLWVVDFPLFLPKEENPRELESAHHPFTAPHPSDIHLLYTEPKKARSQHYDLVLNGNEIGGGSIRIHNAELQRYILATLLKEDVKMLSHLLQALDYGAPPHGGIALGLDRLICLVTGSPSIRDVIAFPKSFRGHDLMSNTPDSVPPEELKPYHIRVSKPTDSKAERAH
UniProt Q8WVC6: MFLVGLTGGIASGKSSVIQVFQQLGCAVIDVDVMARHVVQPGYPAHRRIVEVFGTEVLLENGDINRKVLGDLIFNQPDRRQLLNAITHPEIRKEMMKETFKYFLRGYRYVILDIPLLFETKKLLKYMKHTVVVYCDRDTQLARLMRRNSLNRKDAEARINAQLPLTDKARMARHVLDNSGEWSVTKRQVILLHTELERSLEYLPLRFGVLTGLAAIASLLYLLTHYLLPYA
UniProt Q9NXF7, whole entry, looked up: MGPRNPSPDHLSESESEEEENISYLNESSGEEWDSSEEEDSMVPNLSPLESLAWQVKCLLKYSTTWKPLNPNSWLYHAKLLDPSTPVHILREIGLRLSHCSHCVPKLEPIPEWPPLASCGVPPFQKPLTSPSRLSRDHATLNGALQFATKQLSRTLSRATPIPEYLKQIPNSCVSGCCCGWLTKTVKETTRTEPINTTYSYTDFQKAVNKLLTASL
UniProt P26232: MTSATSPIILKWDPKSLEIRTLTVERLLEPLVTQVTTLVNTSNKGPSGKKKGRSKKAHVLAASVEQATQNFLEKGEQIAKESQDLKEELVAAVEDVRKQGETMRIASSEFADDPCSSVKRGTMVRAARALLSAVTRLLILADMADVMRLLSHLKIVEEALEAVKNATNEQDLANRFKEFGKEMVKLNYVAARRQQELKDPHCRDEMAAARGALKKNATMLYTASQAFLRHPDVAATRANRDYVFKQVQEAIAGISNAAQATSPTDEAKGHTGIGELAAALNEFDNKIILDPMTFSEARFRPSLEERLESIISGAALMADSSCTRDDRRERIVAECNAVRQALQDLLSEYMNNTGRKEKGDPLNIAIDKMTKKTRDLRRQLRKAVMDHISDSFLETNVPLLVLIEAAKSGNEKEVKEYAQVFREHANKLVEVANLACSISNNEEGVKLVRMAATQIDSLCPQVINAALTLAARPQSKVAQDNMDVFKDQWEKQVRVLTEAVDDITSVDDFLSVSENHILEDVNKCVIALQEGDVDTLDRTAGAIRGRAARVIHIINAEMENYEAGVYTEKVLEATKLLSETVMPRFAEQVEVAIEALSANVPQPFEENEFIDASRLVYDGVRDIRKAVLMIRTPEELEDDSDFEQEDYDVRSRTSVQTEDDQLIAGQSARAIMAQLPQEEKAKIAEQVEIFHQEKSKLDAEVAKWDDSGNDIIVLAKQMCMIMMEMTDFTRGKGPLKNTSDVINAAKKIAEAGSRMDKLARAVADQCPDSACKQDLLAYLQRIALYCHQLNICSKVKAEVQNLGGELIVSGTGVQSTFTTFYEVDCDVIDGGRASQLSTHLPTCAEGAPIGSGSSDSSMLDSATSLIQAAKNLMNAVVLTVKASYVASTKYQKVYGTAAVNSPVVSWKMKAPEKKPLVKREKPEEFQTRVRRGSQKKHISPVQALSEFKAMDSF
UniProt Q16850: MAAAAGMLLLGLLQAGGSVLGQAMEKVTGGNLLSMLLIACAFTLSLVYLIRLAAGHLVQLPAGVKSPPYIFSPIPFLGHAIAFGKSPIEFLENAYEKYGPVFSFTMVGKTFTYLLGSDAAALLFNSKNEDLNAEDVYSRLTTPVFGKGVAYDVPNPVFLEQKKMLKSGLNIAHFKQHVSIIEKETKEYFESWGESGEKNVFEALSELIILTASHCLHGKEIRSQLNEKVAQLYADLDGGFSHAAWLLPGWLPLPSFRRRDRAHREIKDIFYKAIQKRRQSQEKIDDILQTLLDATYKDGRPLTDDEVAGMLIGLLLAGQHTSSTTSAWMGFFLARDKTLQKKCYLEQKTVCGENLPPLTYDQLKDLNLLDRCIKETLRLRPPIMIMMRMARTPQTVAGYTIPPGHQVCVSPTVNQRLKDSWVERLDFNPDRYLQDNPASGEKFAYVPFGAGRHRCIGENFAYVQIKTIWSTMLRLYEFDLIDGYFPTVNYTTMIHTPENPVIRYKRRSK
UniProt Q69YN2: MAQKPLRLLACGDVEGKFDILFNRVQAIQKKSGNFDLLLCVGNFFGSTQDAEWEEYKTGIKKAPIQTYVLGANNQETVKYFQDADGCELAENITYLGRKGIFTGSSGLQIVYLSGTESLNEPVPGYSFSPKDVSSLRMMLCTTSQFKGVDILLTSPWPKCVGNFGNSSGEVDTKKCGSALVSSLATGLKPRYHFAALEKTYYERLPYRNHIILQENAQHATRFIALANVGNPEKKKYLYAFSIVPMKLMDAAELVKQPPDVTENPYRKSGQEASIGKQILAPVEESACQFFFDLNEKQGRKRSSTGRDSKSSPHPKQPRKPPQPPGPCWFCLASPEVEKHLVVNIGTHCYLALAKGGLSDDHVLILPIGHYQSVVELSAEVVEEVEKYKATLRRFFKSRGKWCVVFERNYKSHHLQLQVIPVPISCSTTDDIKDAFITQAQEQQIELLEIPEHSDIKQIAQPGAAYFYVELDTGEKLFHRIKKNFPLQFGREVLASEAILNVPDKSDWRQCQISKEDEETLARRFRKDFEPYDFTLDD
UniProt E9PJD7, whole entry, looked up: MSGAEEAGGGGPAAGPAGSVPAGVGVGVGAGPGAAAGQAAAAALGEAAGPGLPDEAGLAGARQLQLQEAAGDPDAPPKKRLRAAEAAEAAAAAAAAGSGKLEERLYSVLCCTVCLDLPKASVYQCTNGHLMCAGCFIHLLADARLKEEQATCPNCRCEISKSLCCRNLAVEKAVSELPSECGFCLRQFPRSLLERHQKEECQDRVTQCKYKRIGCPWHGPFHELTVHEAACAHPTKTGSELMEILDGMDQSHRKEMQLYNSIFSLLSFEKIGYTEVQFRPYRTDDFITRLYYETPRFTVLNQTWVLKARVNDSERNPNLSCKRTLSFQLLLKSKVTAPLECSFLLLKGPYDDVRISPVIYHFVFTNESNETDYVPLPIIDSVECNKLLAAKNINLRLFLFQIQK
UniProt Q8IZD4: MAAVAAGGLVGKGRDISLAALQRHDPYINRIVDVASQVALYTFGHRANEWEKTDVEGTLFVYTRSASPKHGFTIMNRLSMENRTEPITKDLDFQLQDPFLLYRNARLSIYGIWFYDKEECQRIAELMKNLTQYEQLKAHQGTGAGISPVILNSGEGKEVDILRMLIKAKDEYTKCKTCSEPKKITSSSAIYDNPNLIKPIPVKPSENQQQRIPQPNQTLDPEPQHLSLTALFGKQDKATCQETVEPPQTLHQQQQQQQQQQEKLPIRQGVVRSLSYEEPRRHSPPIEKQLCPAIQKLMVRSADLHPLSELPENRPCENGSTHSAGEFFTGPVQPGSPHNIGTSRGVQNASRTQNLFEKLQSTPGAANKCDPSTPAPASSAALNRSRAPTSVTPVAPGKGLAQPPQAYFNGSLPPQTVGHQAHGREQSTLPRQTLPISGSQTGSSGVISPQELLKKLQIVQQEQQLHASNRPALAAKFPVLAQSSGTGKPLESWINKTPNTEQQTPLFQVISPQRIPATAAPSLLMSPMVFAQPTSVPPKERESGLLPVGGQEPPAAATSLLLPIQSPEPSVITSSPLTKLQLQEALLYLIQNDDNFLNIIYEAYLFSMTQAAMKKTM
UniProt Q96F07, whole entry, looked up: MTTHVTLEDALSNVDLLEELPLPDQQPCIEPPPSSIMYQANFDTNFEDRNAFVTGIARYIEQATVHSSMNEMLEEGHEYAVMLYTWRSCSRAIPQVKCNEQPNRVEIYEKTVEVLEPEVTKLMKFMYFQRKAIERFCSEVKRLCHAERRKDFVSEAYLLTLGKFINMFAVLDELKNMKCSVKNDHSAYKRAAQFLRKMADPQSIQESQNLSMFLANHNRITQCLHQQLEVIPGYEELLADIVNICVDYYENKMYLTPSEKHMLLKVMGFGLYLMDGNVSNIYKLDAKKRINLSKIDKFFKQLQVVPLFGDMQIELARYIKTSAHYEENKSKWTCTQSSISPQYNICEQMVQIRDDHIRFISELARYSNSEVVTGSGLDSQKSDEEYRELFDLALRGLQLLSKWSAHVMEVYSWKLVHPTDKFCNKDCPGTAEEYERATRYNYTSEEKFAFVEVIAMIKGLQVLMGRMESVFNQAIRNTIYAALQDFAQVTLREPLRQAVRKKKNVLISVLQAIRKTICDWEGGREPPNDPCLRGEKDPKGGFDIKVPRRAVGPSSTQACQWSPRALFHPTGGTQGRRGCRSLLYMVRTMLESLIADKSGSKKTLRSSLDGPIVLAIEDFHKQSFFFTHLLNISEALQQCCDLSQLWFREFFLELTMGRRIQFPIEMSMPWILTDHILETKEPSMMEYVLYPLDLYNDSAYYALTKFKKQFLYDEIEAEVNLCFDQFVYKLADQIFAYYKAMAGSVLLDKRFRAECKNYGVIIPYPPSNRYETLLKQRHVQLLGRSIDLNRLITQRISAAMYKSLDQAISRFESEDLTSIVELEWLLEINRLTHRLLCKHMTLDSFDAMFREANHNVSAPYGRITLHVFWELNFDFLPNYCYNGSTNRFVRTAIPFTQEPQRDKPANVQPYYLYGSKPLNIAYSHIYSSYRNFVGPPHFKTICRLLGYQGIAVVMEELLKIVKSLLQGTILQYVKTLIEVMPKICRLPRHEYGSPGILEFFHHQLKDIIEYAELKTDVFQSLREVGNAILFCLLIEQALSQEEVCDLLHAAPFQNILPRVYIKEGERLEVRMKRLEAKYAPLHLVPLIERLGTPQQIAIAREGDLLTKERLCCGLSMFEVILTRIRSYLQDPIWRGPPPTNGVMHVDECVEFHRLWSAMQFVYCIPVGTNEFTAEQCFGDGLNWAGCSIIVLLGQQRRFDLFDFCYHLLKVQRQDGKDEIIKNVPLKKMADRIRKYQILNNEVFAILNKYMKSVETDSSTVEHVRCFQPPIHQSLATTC
UniProt P61962: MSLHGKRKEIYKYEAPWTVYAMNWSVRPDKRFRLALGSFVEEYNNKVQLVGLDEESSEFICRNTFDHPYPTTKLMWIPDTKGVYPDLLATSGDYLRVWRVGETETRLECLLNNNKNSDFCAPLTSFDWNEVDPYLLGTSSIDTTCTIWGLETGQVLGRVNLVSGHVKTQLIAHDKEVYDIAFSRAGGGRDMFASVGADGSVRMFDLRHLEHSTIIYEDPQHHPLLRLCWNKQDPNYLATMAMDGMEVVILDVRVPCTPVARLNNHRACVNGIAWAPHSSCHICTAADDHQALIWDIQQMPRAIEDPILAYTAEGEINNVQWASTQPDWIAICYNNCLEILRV
UniProt P53634: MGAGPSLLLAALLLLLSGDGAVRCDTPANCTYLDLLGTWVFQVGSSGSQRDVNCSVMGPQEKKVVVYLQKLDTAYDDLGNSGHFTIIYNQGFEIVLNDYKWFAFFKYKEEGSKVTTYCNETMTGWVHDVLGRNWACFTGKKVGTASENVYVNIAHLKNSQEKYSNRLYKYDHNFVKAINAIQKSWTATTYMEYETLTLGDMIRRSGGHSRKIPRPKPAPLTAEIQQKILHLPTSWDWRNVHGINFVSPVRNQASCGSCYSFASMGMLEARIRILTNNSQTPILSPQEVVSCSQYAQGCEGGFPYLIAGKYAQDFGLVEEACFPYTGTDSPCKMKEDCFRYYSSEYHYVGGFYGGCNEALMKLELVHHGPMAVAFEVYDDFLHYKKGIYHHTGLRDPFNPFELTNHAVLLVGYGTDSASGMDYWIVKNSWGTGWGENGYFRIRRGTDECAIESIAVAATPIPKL

[1] = compound: Cc1cccc(CC(=O)N2CCc3c2ccc(-c2cn(C)c4ncnc(N)c24)c3F)n1
Summary of the method: as §1

nilotinib = compound: Cc1cn(-c2cc(NC(=O)c3ccc(C)c(Nc4nccc(-c5cccnc5)n4)c3)cc(C(F)(F)F)c2)cn1 [nilotinib]
Summary of the method: as §1

[2] = compound: Cc1nc(Nc2n[nH]c3c2CN(C(=O)N[C@H](CN(C)C)c2ccccc2)C3(C)C)c2sccc2n1
Summary of the method: as §1

dasatinib = compound: Cc1nc(Nc2ncc(C(=O)Nc3c(C)cccc3Cl)s2)cc(N2CCN(CCO)CC2)n1 [dasatinib]
Summary of the method: as §1

[3] = compound: Cc1ncc(-c2ccnc(Nc3ccc(S(C)(=O)=O)cc3)n2)n1C(C)C
Summary of the method: as §1

[4] = compound: Cn1cc(-c2ccc3c(c2)CCN3C(=O)Cc2cccc(C(F)(F)F)c2)c2c(N)ncnc21
Summary of the method: as §1

[5] = compound: Cn1cc(-c2ccc3nnc(C(F)(F)c4ccc5ncccc5c4)n3n2)cn1
Summary of the method: as §1

tipifarnib = compound: Cn1cncc1[C@@](N)(c1ccc(Cl)cc1)c1ccc2c(c1)c(-c1cccc(Cl)c1)cc(=O)n2C [tipifarnib]
Summary of the method: as §1

mubritinib = compound: FC(F)(F)c1ccc(/C=C/c2nc(COc3ccc(CCCCn4ccnn4)cc3)co2)cc1 [mubritinib]
Summary of the method: as §1

Measured: log2 fold change

CTU1 (UniProt Q7Z7A3)
inactive: bafetinib -0.024 | [1] 0.067 | nilotinib -0.062 | [2] -0.03 | dasatinib -0.145 | [3] -0.03 | [4] 0.035 | [5] 0.02 | tipifarnib -0.043 | mubritinib 0.067

DARS2 (UniProt Q6PI48)
inactive: bafetinib 0.002 | [1] -0.025 | nilotinib -0.011 | [2] 0.065 | dasatinib 0.02 | [3] 0 | [4] -0.015 | [5] -0.014 | tipifarnib -0.013 | mubritinib -0.01

DCAKD (UniProt Q8WVC6)
inactive: bafetinib -0.165 | [1] -0.008 | nilotinib -0.11 | [2] -0.075 | dasatinib -0.024 | [3] 0.107 | [4] 0.012 | [5] 0.02 | tipifarnib 0.029 | mubritinib -0.053

DCAF16 (UniProt Q9NXF7)
inactive: bafetinib -0.051 | [1] -0.056 | nilotinib -0.005 | [2] -0.004 | dasatinib -0.179 | [3] 0.005 | [4] -0.031 | [5] 0.091 | tipifarnib -0.155 | mubritinib -0.085

CTNNA2 (UniProt P26232)
inactive: bafetinib -0.099 | [1] 0.05 | nilotinib 0.017 | [2] -0.039 | dasatinib -0.033 | [3] -0.029 | [4] 0.055 | [5] -0.001 | tipifarnib 0.023 | mubritinib 0.048

DAGLB (UniProt Q8NCG7)
inactive: bafetinib -0.045 | [1] -0.031 | nilotinib 0.005 | [2] 0.001 | dasatinib -0.014 | [3] -0.015 | [4] 0.011 | [5] 0.087 | tipifarnib -0.014 | mubritinib 0.078

CTPS1 (UniProt P17812)
inactive: bafetinib -0.027 | [1] -0.022 | nilotinib -0.019 | [2] -0.004 | dasatinib 0.012 | [3] 0.01 | [4] 0.029 | [5] 0.018 | tipifarnib -0.011 | mubritinib 0

CYP51A1 (UniProt Q16850)
inactive: bafetinib 0.02 | [1] -0.019 | nilotinib 0.156 | [2] -0.03 | dasatinib 0.092 | [3] -0.016 | [4] -0.016 | [5] -0.143 | mubritinib 0.047
active: tipifarnib 1.27

Looked up one by one from the entries so far, 2 records:
CTNNA2 (UniProt P26232)
inactive: bafetinib -0.099 | [1] 0.05 | nilotinib 0.017 | [2] -0.039 | dasatinib -0.033 | [3] -0.029 | [4] 0.055 | [5] -0.001 | tipifarnib 0.023 | mubritinib 0.048

DAGLB (UniProt Q8NCG7)
inactive: bafetinib -0.045 | [1] -0.031 | nilotinib 0.005 | [2] 0.001 | dasatinib -0.014 | [3] -0.015 | [4] 0.011 | [5] 0.087 | tipifarnib -0.014 | mubritinib 0.078

Additional results follow.

CWF19L1 (UniProt Q69YN2)
inactive: bafetinib 0.025 | [1] -0.015 | nilotinib 0.011 | [2] -0.011 | dasatinib -0.056 | [3] 0.026 | [4] -0.076 | [5] -0.016 | tipifarnib -0.012 | mubritinib 0.056

CYHR1 (UniProt E9PJD7)
inactive: bafetinib -0.033 | [1] 0.015 | nilotinib 0.043 | [2] -0.038 | dasatinib 0.065 | [3] -0.034 | [4] 0.002 | [5] 0.063 | tipifarnib 0.066 | mubritinib 0.115

DCP1B (UniProt Q8IZD4)
inactive: bafetinib 0.048

DBR1 (UniProt Q9UK59)
inactive: bafetinib -0.001 | [1] 0.02 | nilotinib -0.023 | [2] 0.05 | dasatinib 0.06 | [3] -0.009 | [4] 0.021 | [5] -0.067 | tipifarnib 0.03 | mubritinib -0.002

CYFIP2 (UniProt Q96F07)
inactive: bafetinib -0.048 | [1] 0.016 | nilotinib -0.009 | [2] -0.058 | dasatinib -0.11 | [3] -0.054 | [4] 0.001 | [5] 0.002 | tipifarnib 0.022 | mubritinib 0.071

DCAF7 (UniProt P61962)
inactive: bafetinib 0.009 | [1] 0.004 | nilotinib -0.06 | [2] -0.005 | dasatinib -0.048 | [3] -0.053 | [4] -0.108 | [5] 0.032 | tipifarnib -0.018 | mubritinib 0.017

CYFIP1 (UniProt Q7L576)
inactive: bafetinib -0.064 | [1] 0.002 | nilotinib -0.015 | [2] -0.064 | dasatinib -0.05 | [3] -0.024 | [4] 0.049 | [5] -0.006 | tipifarnib -0.011 | mubritinib 0.022

CTSC (UniProt P53634)
active: bafetinib -0.452
inactive: [1] -0.004 | nilotinib -0.008 | [2] 0 | dasatinib 0.046 | [3] -0.033 | [4] 0.041 | [5] 0.004 | tipifarnib -0.039 | mubritinib 0.056
